Laboratory results: PubChem BioAssay AID1224830 (NIAID, 2016)
The deposit covers about 18,000 reagents; shown is a part drawn at random. About 2,900 of them (16%) were called active. 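Calls are made per well; low scores hint the gene aids the LPS response, high scores that it dampens it.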 Repeated entries: four replicate wells of each siRNA pool.

Purpose: 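Host factors that control LPS-induced TNF expression in human macrophages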 (primary screen)
Cells: human THP-1 monocytic leukaemia cells, TNF dual-luciferase reporter clone, PMA-differentiated to macrophage-like cells
Knock-down reagent: siRNA pool against human genes, 50 nM
Timing: LPS for 4 h, given about 3 days after siRNA transfection
Conditions: bacterial LPS (TLR4 ligand), 10 ng/ml
Measurement: 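Ratio of firefly to renilla light, scaled to the plate median and expressed as a robust z-score per replicate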
Reading the numbers: TNF reporter robust z-score: higher = stronger TNF reporter response to LPS
Hit rule: 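a well is active when its z-score exceeds 2.8 or falls below -1.5; control wells carry no call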

RIF1 (GeneID 55183) [SID315457475] | TNF reporter robust z-score: 0.54; call: inactive
RIF1 (GeneID 55183) [SID315457475] | TNF reporter robust z-score: -0.09; call: inactive
RIF1 (GeneID 55183) [SID315457475] | TNF reporter robust z-score: 0.75; call: inactive
RIF1 (GeneID 55183) [SID315457475] | TNF reporter robust z-score: 0.17; call: inactive
DEFA4 (GeneID 1669) [SID315448287] | TNF reporter robust z-score: -0.12; call: inactive
DEFA4 (GeneID 1669) [SID315448287] | TNF reporter robust z-score: 0.65; call: inactive
DEFA4 (GeneID 1669) [SID315448287] | TNF reporter robust z-score: -0.16; call: inactive
DEFA4 (GeneID 1669) [SID315448287] | TNF reporter robust z-score: 0.82; call: inactive
PNMA2 (GeneID 10687) [SID315454297] | TNF reporter robust z-score: -0.1; call: inactive
PNMA2 (GeneID 10687) [SID315454297] | TNF reporter robust z-score: -0.45; call: inactive
PNMA2 (GeneID 10687) [SID315454297] | TNF reporter robust z-score: 0.42; call: inactive
PNMA2 (GeneID 10687) [SID315454297] | TNF reporter robust z-score: -0.07; call: inactive
TCL6 (GeneID 27004) [SID315455873] | TNF reporter robust z-score: -1.21; call: inactive
TCL6 (GeneID 27004) [SID315455873] | TNF reporter robust z-score: -0.24; call: inactive
TCL6 (GeneID 27004) [SID315455873] | TNF reporter robust z-score: -0.72; call: inactive
TCL6 (GeneID 27004) [SID315455873] | TNF reporter robust z-score: -1.1; call: inactive
GEMIN8 (GeneID 54960) [SID315457301] | TNF reporter robust z-score: -0.09; call: inactive
GEMIN8 (GeneID 54960) [SID315457301] | TNF reporter robust z-score: 0; call: inactive
GEMIN8 (GeneID 54960) [SID315457301] | TNF reporter robust z-score: 0.06; call: inactive
GEMIN8 (GeneID 54960) [SID315457301] | TNF reporter robust z-score: 0.26; call: inactive
SCRIB (GeneID 23513) [SID315455290] | TNF reporter robust z-score: 0.81; call: inactive
SCRIB (GeneID 23513) [SID315455290] | TNF reporter robust z-score: 1.56; call: inactive
SCRIB (GeneID 23513) [SID315455290] | TNF reporter robust z-score: 0.3; call: inactive
SCRIB (GeneID 23513) [SID315455290] | TNF reporter robust z-score: 0.43; call: inactive
KDM3B (GeneID 51780) [SID315456894] | TNF reporter robust z-score: -0.38; call: inactive
KDM3B (GeneID 51780) [SID315456894] | TNF reporter robust z-score: -0.21; call: inactive
KDM3B (GeneID 51780) [SID315456894] | TNF reporter robust z-score: -0.86; call: inactive
KDM3B (GeneID 51780) [SID315456894] | TNF reporter robust z-score: 0.12; call: inactive
ZNF488 (GeneID 118738) [SID315461452] | TNF reporter robust z-score: -1.17; call: inactive
ZNF488 (GeneID 118738) [SID315461452] | TNF reporter robust z-score: -1.23; call: inactive
ZNF488 (GeneID 118738) [SID315461452] | TNF reporter robust z-score: -1.6; call: active
ZNF488 (GeneID 118738) [SID315461452] | TNF reporter robust z-score: -0.81; call: inactive
PCSK5 (GeneID 5125) [SID315450460] | TNF reporter robust z-score: -0.11; call: inactive
PCSK5 (GeneID 5125) [SID315450460] | TNF reporter robust z-score: 0.17; call: inactive
PCSK5 (GeneID 5125) [SID315450460] | TNF reporter robust z-score: -0.66; call: inactive
PCSK5 (GeneID 5125) [SID315450460] | TNF reporter robust z-score: 1.08; call: inactive
WFDC5 (GeneID 149708) [SID315462427] | TNF reporter robust z-score: -0.28; call: inactive
WFDC5 (GeneID 149708) [SID315462427] | TNF reporter robust z-score: 0.03; call: inactive
WFDC5 (GeneID 149708) [SID315462427] | TNF reporter robust z-score: -0.21; call: inactive
WFDC5 (GeneID 149708) [SID315462427] | TNF reporter robust z-score: -1.04; call: inactive
GAMT (GeneID 2593) [SID315448832] | TNF reporter robust z-score: 0.15; call: inactive
GAMT (GeneID 2593) [SID315448832] | TNF reporter robust z-score: 0.08; call: inactive
GAMT (GeneID 2593) [SID315448832] | TNF reporter robust z-score: -1.24; call: inactive
GAMT (GeneID 2593) [SID315448832] | TNF reporter robust z-score: 0.57; call: inactive
CCDC171 (GeneID 203238) [SID315463119] | TNF reporter robust z-score: 1.72; call: inactive
CCDC171 (GeneID 203238) [SID315463119] | TNF reporter robust z-score: 0.2; call: inactive
CCDC171 (GeneID 203238) [SID315463119] | TNF reporter robust z-score: 0.17; call: inactive
CCDC171 (GeneID 203238) [SID315463119] | TNF reporter robust z-score: 2.37; call: inactive

Entries above called active:
ZNF488 (GeneID 118738) [SID315461452] | TNF reporter robust z-score: -1.6; call: active
